# Screening data

The results are deposited in PubChem (AID1159506; NCATS, 2015).

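Genome-wide siRNA knockdown in TC32 Ewing sarcoma cells, comparing luciferase light from an NR0B1-promoter reporter with a CMV-promoter reporter 48 hours after transfection.
Each siRNA was applied at 20 nM.
A z-score of the log NR0B1-over-CMV signal, less the median of siRNAs with the same seed; more negative means a stronger specific loss of the NR0B1 reporter.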

The strongest results of the screen are mostly left out here.
Sequences are the guide (antisense) strand, without overhang.

strand | target gene | seed-corrected z-score
AUCGUACAAAGUGAGGGUG | MYH13 | -1.841
UAAUAUGCUACCUGCACAG | SPATA17 | -0.3562
UCGCCUCACACGUUGUUCC | ZNF418 | -0.276
UCAGUUGAGGUUCUAAGAC | NQO1 | 0.08635
UCUGGUAUAGAGGCAAUGC | MALT1 | -1.432
UGUUUAGCAAGUGUUUCCU | PIK3CD-AS1 | 0.5072
ACCGUUGUAGUGUACAGCC | EPB42 | -0.2589
AUAGGUUUCCGAAUAUACC | ABI1 | 1.514
UACAGCGAAUUUUAUAUCC | BBS2 | -1.217
AUCACUUUUAUAACCAUUC | HNRNPA1 | -0.3994
UCCUUUGUCUCUUCCAUCC | FAM210A | 1.031
UGAGGGUCUUCUCAAAGGC | AKR1B15 | -0.6635
UGUCAUUCAAGGCAUAGAG | POPDC3 | -0.5147
UUCCAUUGAAACAAGUUCC | EGFEM1P | -0.956
AUAGUUCAAAUAGCAGCCG | SLC15A4 | -0.482
UUCUAUUCAUGCAAUGAUC | CCNDBP1 | 0.1527
AUGCGAAUAAAAUCGGAGC | CD27 | -0.5208
UGCCUUGAACUUUAUGUUC | LOC727944 | -0.7122
AUAGAUUACAUCGAUAGGG | ZFP90 | -0.4492
UUAAGGUCUGGGACAGUUC | PRDM10 | 0.06067
UUUACUAGAACUCCUACUG | FNBP4 | 0.6111
UCCACUGCUAACUUGCUGC | LOC730183 | -0.7732
UCUGGCUGUAGACAGGUGG | MSGN1 | -1.196
UUGACGGUGACGAUGAGGU | PARD6G | 0.4966
UUAGUUCAUCUUCGGCUGC | PMS2 | -0.2588
UGAAGAUCCAAAUAUGCGG | TBCA | 1.518
UUCGUUCAAAACUUGUCUG | ANKRD12 | -0.1256
UUUCUGGAUGCGGAUGUCG | SYN3 | -0.004178
UUGAGUUUGCUUUUCGACC | PTPRN2 | -0.4792
UUUCUAUGAUGACCCGGGC | RPS17 | 0.3787
UCUUUGUGAGCUGUAAGAC | ENTPD5 | -1.045
UGCUGUUGAACAAUAUUGC | USP48 | -0.698
AACCGUACAAAACUCAAGC | XRCC1 | 0.4628
UGAUCCACUCGGAUAGUUC | RBMX2 | 0.006545
UUAUUGUGAAAUGCAUACG | SERPINB10 | -0.04371
UUCUCGAUGUUGAUCAGCC | ENGASE | -0.3066
UUUUGGACACUAGCUCUGU | RXRB | 0.31
UUUCUAAAAUGUUCGUCUC | NBPF1 | 0.1856
UGCGGAAACAUUUCAGAGC | PLEKHM1P1 | 0.522
UGGGCAGUGAGUAGGUUCC | GM2A | 0.4132
UCAGAGAUGGGAUUAUUGG | FAM46C | 0.5272
UGAUAUUCAAUGUAGUUGC | SCFD1 | -0.6341
UACGAGUAAUGUUCCGUGC | DOK4 | 0.6322
UAUCUGUCAAUACUCAGAG | EDNRB | -0.2227
UACUGGUGAGGAUCUGUUG | LEP | -0.2993
GAUGGCACCAGCUCGAAUU | MYCL | -0.7949
UGAAGUAACAGUCAGCCUU | HLA-DOB | 0.6586
UCAGCUCGAAGCAUCCUCU | SHC2 | 0.6746
AAAGGAAUGCUAGUUAGUG | SUSD3 | 0.3354
UAUCAAUCCAUGCUCCUCG | CHCHD4 | -0.1976
UUCUUCAAAGCCGAAGUUG | ATP4B | 0.1962

For reference, 5 entries once more:

- UGCUGUUGAACAAUAUUGC against USP48 : seed-corrected z-score -0.698
- AUAGGUUUCCGAAUAUACC against ABI1 : seed-corrected z-score 1.514
- AUCACUUUUAUAACCAUUC against HNRNPA1 : seed-corrected z-score -0.3994
- UCCACUGCUAACUUGCUGC against LOC730183 : seed-corrected z-score -0.7732
- UCUGGUAUAGAGGCAAUGC against MALT1 : seed-corrected z-score -1.432